Our source for the binding values is paper PMC8881610.

By UniProt entry, the sequences of proteins in these tests, tags left out. Residues count along the entry.
UniProt P01275, residues 98-127: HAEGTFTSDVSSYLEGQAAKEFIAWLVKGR

These are yes or no findings as the source states them, for the method shown.

The assay concerns the target T1, human GIPR, wild-type, on cells (human) (UniProt P48546).
T1 sequence: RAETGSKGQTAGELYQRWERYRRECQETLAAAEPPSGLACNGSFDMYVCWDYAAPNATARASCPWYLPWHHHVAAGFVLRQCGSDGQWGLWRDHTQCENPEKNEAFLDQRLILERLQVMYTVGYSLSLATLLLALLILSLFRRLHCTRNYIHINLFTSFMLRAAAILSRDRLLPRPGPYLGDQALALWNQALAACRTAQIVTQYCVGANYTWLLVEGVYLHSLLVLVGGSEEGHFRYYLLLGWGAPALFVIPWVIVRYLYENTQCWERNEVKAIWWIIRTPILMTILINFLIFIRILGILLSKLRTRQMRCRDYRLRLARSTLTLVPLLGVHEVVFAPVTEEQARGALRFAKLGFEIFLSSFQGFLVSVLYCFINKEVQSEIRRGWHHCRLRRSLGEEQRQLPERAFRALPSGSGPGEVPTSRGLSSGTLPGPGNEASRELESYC
Nature of the assay: radioligand binding; whole-cell competition on CHO-K1 cells transiently expressing GIPR; 125I-GIP(1-42) 30 pM and unlabeled peptide 3.57 pM to 5 μM, RT, 3 h; F-12 with 0.1% BSA or 0.1% casein, 33 mM HEPES; only the binder purified.

As for “glucagon-like peptide-1 GLP-1(7-36)NH2 (from UniProt P01275 98-127) (ligand)”, the binding result is “no binding (tested: 5 μM)”.
